Measurements taken from publication PMC13478228.
No constants are given. Whether binding was seen depends on the method and setting. Tags and fused reporters may be left off the sequences shown.

Target: T1, human sirtuin 2 (SIRT2), C-terminal His tag (human), Q8IXJ6
T1 chain: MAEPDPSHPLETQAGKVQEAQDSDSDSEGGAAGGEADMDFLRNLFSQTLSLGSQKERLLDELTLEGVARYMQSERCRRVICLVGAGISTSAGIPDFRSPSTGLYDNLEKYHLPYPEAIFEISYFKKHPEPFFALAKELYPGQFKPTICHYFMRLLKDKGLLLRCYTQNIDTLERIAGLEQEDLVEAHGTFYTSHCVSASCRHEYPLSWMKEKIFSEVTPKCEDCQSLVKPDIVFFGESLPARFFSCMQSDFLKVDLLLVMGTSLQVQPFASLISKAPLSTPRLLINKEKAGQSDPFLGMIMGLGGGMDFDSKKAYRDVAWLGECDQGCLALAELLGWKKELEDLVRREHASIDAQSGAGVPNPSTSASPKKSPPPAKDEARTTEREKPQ
Assay: SEC; analytical SEC of pre-mixed, separately purified SerRS and SIRT2-His, no ligand added; both purified
Conditions: remark: other sources report otherwise

B1: human sirtuin 2 (SIRT2), C-terminal His tag, Q8IXJ6 1-389 (enzyme)
chain: T1 chain
B1 was tested, and the binding was “no binding”.
